# Results of single-concentration screens

Chains of the proteins cited; added tags and fusions are not shown.
UniProt P9WFT3, whole entry: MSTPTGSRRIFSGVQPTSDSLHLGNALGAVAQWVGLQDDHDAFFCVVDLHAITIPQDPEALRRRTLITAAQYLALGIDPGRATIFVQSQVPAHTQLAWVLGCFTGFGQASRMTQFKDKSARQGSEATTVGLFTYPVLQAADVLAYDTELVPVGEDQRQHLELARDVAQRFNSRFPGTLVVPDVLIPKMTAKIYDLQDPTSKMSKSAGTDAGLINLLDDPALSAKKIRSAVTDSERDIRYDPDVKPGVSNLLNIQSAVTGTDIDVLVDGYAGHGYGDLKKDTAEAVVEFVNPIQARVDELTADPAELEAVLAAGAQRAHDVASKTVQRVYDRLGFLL
UniProt P9WNZ1, whole entry: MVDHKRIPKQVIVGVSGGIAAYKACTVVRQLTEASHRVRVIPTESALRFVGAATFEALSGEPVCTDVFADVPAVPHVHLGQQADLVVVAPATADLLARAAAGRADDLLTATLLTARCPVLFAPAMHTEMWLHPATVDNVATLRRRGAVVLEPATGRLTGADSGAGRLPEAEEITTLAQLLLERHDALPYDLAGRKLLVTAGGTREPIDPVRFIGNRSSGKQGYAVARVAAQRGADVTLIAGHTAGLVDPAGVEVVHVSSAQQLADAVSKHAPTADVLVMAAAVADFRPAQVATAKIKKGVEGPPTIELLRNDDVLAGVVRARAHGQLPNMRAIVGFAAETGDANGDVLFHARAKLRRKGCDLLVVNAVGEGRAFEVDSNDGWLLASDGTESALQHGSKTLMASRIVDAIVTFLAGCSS

Source: ChEMBL document CHEMBL3988442, “University of Dundee, Small-Polar-MMV Screening Library” (2021).

Values are the deposited “Percent Effect”, in %. How 0% and 100% were set is not recorded. Most values in the screen are low, and negative values occur. Compounds were drawn at random from those tested, without regard to their results. Two or more numbers in one place are separate tests of the same structure; such repeats can differ widely. A dash means the value is not listed here; it may have been measured.

A: 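Cell assay of Leishmania donovani living inside macrophages; the read-out is not stated. Tested at 30 µM. Higher reads as stronger inhibition (inferred: compounds with an IC50 in retests scored well above the rest). Size under these conditions: about 69,000 compounds, about 1,000 of them at 50% or above in at least one test.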
B: 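Enzyme assay of tryptophanyl-tRNA synthetase; the read-out is not stated. Target: Tryptophan-tRNA ligase, Mycobacterium tuberculosis (UniProt P9WFT3). Concentration: 10 µM. Higher most likely means stronger inhibition; the record gives no direction and few retests gave an IC50. Size under these conditions: about 65,000 compounds, about 64 of them at 50% or above in at least one test.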
C: 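Assay of Toxoplasma gondii numbers, read through their beta-galactosidase reporter with a colour substrate. Tested at 10 µM. The record gives no direction; the compounds picked for IC50 retests had high values, so higher reads as fewer parasites. About 67,000 compounds were tested under these conditions; 0.38% (about 260) showed 50% or more at least once.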
D: 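Enzyme assay of CoaBC with a phosphate dye (Biomol Green) read at 650 nm. Target: Coenzyme A biosynthesis protein CoaBC, Mycobacterium tuberculosis (UniProt P9WNZ1). Concentration: 30 µM. Direction is inferred from only a few compounds that gave an IC50; most scored high, so higher reads as stronger inhibition. Most strong results did not repeat in a second test. About 67,000 compounds were tested under these conditions; 0.06% (about 40) showed 50% or more at least once.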

compound	A	B	C	D
CC(=O)N1CC2(CCN(C(=O)C3CC3)CC2)c2cc(C)ccc21	-26.2	10.28	0.4199	-3.462
CNC(=O)CN1C(=O)CCC12CCCN(Cc1cccc(F)c1)C2.O=C(O)C(F)(F)F.O=C(O)C(F)(F)F (configuration not stated)	14.12	-	-8.525	-
Cc1noc(C(C)N(C)Cc2ccco2)n1 (configuration not stated)	15.94	-2.166	-4.494	4.303
CC(C)C(=O)N1Cc2ccccc2CC2(CCCN2C)C1 (configuration not stated)	7.725	-0.08643	-3.412	3.684
O=C1CN(CCCNC(=O)Nc2ccccn2)CCN1	15.35	-1.874	23.36	1.952
CCc1cc(N2CCC(NC(=O)CCC3CCCO3)CC2)ncn1 (configuration not stated)	-2.504	-5.802	3.017	-3.186
Cc1cccc(CNC[C@H]2COCc3nc4cccnc4n32)n1	-4.399	0.4647	4.803	1.935
O=C(c1cc(Br)ccc1-n1cnnn1)N1CCCCC1	4.701	2.973	3.411	1.453
CC(Cn1ccnc1)NC(=O)N1CCN(Cc2ccsc2)CC1 (configuration not stated)	56.49	-3.829	-21.89	8.238
CCN(CC)CCNC(=O)CCc1c(C)nn(-c2cccc(Cl)c2)c1C	25.28	-	19.82	1.942
Cc1ccc(OC2(C(=O)O)CCN(C(=O)CCc3ccco3)CC2)cc1	27.98	1.342	-9.055	-7.057
[H][C@@]12CN(Cc3cccnc3)C[C@]1([H])N(CCCN1CCOCC1)C(=O)O2	-4.478	-	7.589	-
N#Cc1cn(C2CC2)c(=O)n(Cc2cc(-c3cccs3)on2)c1=O	-0.3056	-3.121	-10.02	-5.992
O=C(O)C(F)(F)F.O=C(O)C(F)(F)F.c1csc(CN2CCOCC3(CCN(C4CCOCC4)C3)C2)c1 (configuration not stated)	-0.6449	-	-4.102	-
CCc1ccsc1C(=O)N(C)CCc1ccncc1	-4.324	1.183	-0.6901	13.65
COCC1CC2(CCN(Cc3cccnc3)CC2)CN1c1ncccn1.O=C(O)C(F)(F)F.O=C(O)C(F)(F)F.O=C(O)C(F)(F)F (configuration not stated)	-9.552	-	0.6761	-
O=C(O)C(F)(F)F.[H][C@@]12CCC(=O)N(c3cnn(C)c3)[C@]1([H])CCN2Cc1ccc(OC)cc1	19.75	-	35.62	-
O=C(O)C(F)(F)F.[H][C@@]12CCN(Cc3c(C)noc3C)C[C@]1(C(=O)NCC1CC1)CCO2	26.31	-	-3	-
O=C(Cn1cc(C(=O)O)ccc1=O)NCc1ccc(F)cc1Cl	2.996	10.1	-14.35	-1.927
O=C(c1cscn1)N1CC[C@@H]2[C@@H]1CCN2C1CCOCC1	-	-	-	-0.7317
OCCn1nnnc1Cc1ccc(Br)cc1	18.18	-1.715	5.825	-
COCCN(Cc1ccoc1)C(=O)c1ccc(Cl)s1	11.24	2.205	1.992	2.767
CCc1ncc2c(n1)CN(Cc1cnc(C)cn1)CC2	27.11	10.15	1.7	-2.177
Cc1ccccc1SCC(=O)Nn1cnnc1	18.29	1.525	-43.37	4.38
CN1CCNC(=O)C1CC(=O)NCCc1cnn(-c2ccccc2)c1 (configuration not stated)	4.474	-1.952	22.62	0.1196
Cc1ccc2c(c1)c(CNC(=O)C1CCN(C(=O)C3CC3)CC1)nn2C	12.82	-7.385	11.73	10.06
Cn1cnc(-c2cc(C(=O)N3CCOCC3)c3ccccn23)c1	25.2	3.923	-3.497	2.057
O=C(O)C(F)(F)F.O=C(O)C(F)(F)F.c1cncc(CO[C@H]2CO[C@@]3(CCN(Cc4ccoc4)C3)C2)c1	26.96	-	-0.3586	-
Cc1nc(N2CCC3(CCCN(CC4CC4)C3=O)C2)c2sccc2n1 (configuration not stated)	30.74	-0.2064	4.224	-
Cc1cc(C(=O)NC2CC(=O)N(C(C)C)C2=O)c(C)n1C(C)C (configuration not stated)	19.34	-1.883	-1.234	4.888
COCCN1C(=O)[C@]2(CC[C@@H]3CN(Cc4ccccc4F)C[C@@H]32)N=C1C	-	-2.322	-	2.824
Cc1n[nH]c(C)c1-c1nccnc1CC1CCN(C(C)C)CC1	-6.735 and 13.27	-	12.73	-4.116
CN(Cc1cc(Br)cn1C)C(=O)Cc1cccc(O)c1	37.51	-5.345	8.233	-3.067
CCc1noc(C)c1C(=O)NCCCC(CC)(CC)C1OCCO1	23.73	1.398	-2.947	2.778
Cc1nccc([C@H]2C[C@@H]3CCN(C(=O)c4c(C)noc4C)C[C@H]3O2)n1	-	-0.8718	-	7.143
CCN1CCN(C)C2(CCN(Cc3ccc(C)o3)CC2)C1=O	-	9.135	-	0.7634
O=c1c2cnc(N3CCCCC3)nc2ccn1Cc1ccco1	3.144	3.087	5.238	6.127
O=S(=O)(Cc1ccc(F)cc1)NCCc1nnc2n1CCC2	16.82 and 29.42	1.295	-17.39	2.532
[H][C@@]12COC[C@]1([H])[C@@H](OC)CN2C(=O)c1ccc2c(c1)OCO2	-8.45	-	4.84	-
CO[C@@]1(C)C[C@@H](O)C12CCN(C(=O)C1(c3ccccc3F)CC1)CC2	-18.07	0.4831	2.55	3.68
Cn1cnc(S(=O)(=O)N2CC3(CCN(CC4CC4)C3)C2)c1	-	-	-	-3.342
CS(=O)(=O)N1CCN(CC(O)COc2ccc(F)cc2)CC1 (configuration not stated)	-11.94	4.3	-5.966	7.692
Cc1cc(C2CCCN(Cc3ncc(C)o3)C2)n[nH]1 (configuration not stated)	0.9711	-3.054	12.2	5.623
Cc1ccccc1-n1cc(-c2ccnc(N3CCCC(CN)C3)n2)cn1 (configuration not stated)	67.45	-0.9397	-8.182	6.667
c1nc2c(c(NCCCn3cncn3)n1)CCN(CC1CCOC1)CC2 (configuration not stated)	-3.545	-0.4836	5.148	-7.025
CCn1nc(C)c2nc(C(C)C)nc(NCCCn3ccnc3)c21	32.37	-1.813	76.16	-0.6928

Once more, the final 3:

Result for Cc1ccccc1-n1cc(-c2ccnc(N3CCCC(CN)C3)n2)cn1 (configuration not stated) was A: 67.45%; B: -0.9397%; C: -8.182%; D: 6.667%.
Result for c1nc2c(c(NCCCn3cncn3)n1)CCN(CC1CCOC1)CC2 (configuration not stated) was A: -3.545%; B: -0.4836%; C: 5.148%; D: -7.025%.
Result for CCn1nc(C)c2nc(C(C)C)nc(NCCCn3ccnc3)c21 was A: 32.37%; B: -1.813%; C: 76.16%; D: -0.6928%.